Where “and” joins values, the source holds several entries; their conditions need not be identical. Identical values can stand only once. Hit rate of the full screen: of about 220,000 compounds, about 770 (0.35%) were called active. This list was built around the results that the source calls inconclusive (neither active nor inactive); the mix of calls is not that of the screen. Cut-off read from the data, not from the text of the source: active = binding response below about 49% or above about 150%; inconclusive = no clear call, values can overlap the other calls; inactive = in between.
target: Guanine nucleotide-binding protein G(o) subunit alpha (Homo sapiens) (UniProt P09471); assay: RGS7-Galphao binding modulators, primary screen, biochemical, multiplexed bead flow cytometry (AID 1439); conditions: at 10 µM, actives lie on both sides;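 note: fluorescent Galphao held in activated GDP-AlF4 state binding bead-coupled RGS7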

Protein sequences, listed by entry. Tags and fused reporters are not part of them.
UniProt P09471, whole entry, looked up: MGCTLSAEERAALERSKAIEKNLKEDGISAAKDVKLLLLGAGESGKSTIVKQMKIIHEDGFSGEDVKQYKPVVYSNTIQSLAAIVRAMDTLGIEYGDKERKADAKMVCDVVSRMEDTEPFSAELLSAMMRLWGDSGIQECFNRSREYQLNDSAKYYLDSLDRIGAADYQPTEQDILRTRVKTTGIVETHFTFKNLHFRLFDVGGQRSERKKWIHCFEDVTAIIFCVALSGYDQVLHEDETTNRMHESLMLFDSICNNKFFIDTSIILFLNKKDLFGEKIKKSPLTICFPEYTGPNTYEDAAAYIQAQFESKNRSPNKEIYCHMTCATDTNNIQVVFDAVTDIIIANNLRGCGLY

Structure (SMILES)	binding response (% of control)
CC1=[N+]([O-])C(C)(C)N(O)C1(C)C	inconclusive: 67.3%
CCNc1ccc(P(=O)(c2ccccc2)c2ccccc2)cc1	inconclusive: 88.6%
Cc1[nH]ncc1-c1ccccc1Cl	inconclusive: 118%
CCC(C)(C)c1ccc(OCC(=O)N(C)C)c(C(C)(C)CC)c1	inconclusive: 117%
COc1ccc(CNC(=O)c2cc(-c3cc(C)cc(C)c3O)n[nH]2)cc1	inconclusive: 98.3%
S=C(c1c[nH]c2ccccc12)N1CCOCC1	inconclusive: 88%
CCC(=O)Nc1cccc(C2=NOC3(C2)C[C@H](C(N)=O)N(C(=O)c2ccc(Cl)cc2)C3)c1 (stereo not given in full)	inconclusive: 89.9%
O=C(CSc1cccc[n+]1[O-])Nc1ccccc1Oc1ccccc1	inconclusive: 128%
Cc1cc(C(=O)N2CCC(C)CC2)on1	inconclusive: 98%
COc1ccc(/C=C2\N=C3CCCCCN3C2=O)cc1	inconclusive: 84.8%
O=C(CSc1nc2ccccc2c(=O)n1Cc1ccco1)NCCN1C(=O)CSC1=O	inconclusive: 137%
CCn1c2ccccc2c2c3ncc4cccn4c3ccc21	inconclusive: 31.1%
O=[N+]([O-])c1ccc(SCCc2ccncc2)cc1	inconclusive: 105% and inconclusive: -10.8%
O=C(Cn1cnc([N+](=O)[O-])n1)N/N=C/c1cc(Cl)ccc1O	inconclusive: 87.7%
CN(C)S(=O)(=O)c1ccc(C(=O)OCC(=O)c2ccc3c(c2)NC(=O)CO3)cc1	inconclusive: 94.7%
Cc1cc(/C=N/Nc2ccc([N+](=O)[O-])cn2)c(C)n1-c1cccc(C(=O)O)c1	inconclusive: 116%
CC(C)(C)OC(=O)NC(Cc1ccccc1)C(=O)O (stereo not given)	inconclusive: 82.4%
Cc1cc(C)c(NC(N)=S)c(C)c1	inconclusive: 104%
COC(=O)N/N=C/c1cccc([N+](=O)[O-])c1	inconclusive: -119%
Cc1ccc(-c2nc3ccccc3nc2Cl)cc1	inconclusive: 104%

Structure (SMILES)	binding response (% of control)
O=C(N/N=C/c1ccc([N+](=O)[O-])cc1)c1cccs1	inconclusive: 92.5%
O=C(NNc1cccc(Cl)n1)Nc1ccccc1F	inconclusive: 135%
O=C(Nc1nc(-c2ccccc2)cs1)c1ccco1	inconclusive: 78.8%
Cc1ccc2nc(Cl)c3nnnn3c2c1	inactive: 97.4%
COc1ccc(C(=O)CCNc2ccc(F)cc2)cc1	inconclusive: 99.6%
COc1ccc(C(=O)N/C(=C\c2cccc3ccccc23)C(=O)N2CCN(C)CC2)cc1OC	inconclusive: 96.6%
CCN(C(=O)CSc1cc(C)c2ccccc2n1)C1CCS(=O)(=O)C1 (stereo not given)	active: 12.4%
O=c1[nH]c(SCc2cccc(F)c2)nc2c1CCCC2	inactive: 103%
Cc1ccccc1-c1nc(CN(Cc2c(C)nn(C)c2C)C2CC2)c(C)o1	inactive: 105%
COc1ccc([N+](=O)[O-])cc1N(CC(=O)N1CCCCC1)S(C)(=O)=O	inactive: 95.8%
CCN(C(=O)COC(=O)c1cccc(-n2cnnn2)c1)C1CCCCC1	inconclusive: 92.3%
Oc1oc(-c2ccc(Br)cc2)nc1C=Nc1ccc(Br)cn1	inactive: 138%
CC(C)CCn1c(Sc2nc3ccccc3o2)nc2c1c(=O)[nH]c(=O)n2C	inactive: 96.2%
CC(NC(=O)c1cncc(Br)c1)c1ccc(S(N)(=O)=O)cc1 (stereo not given)	inactive: 98.6%
CCC(C)(C)NC(=O)/C=C/c1ccccc1[N+](=O)[O-]	inconclusive: 112%
Cc1onc(-c2ccccc2Cl)c1C(=O)O/N=C(\N)c1ccc([N+](=O)[O-])o1	inconclusive: 94.9%
CC(C)C(=O)NN1c2ccccc2CCc2ccccc21	inconclusive: 225%
Cn1c2c(c(=O)n(C)c1=O)CN(Cc1ccc3c(c1)OCO3)CN2	inactive: 99.8%
N#CCCC1CCCC=C1N(Cc1ccccc1)C(=O)C(Cl)Cl (stereo not given)	inconclusive: 107%
CCOCCCNCc1ccc(OCc2ccccc2C)c(OC)c1	inconclusive: 77.4%

Structure (SMILES)	binding response (% of control)
CC(=O)N(CCS(=O)(=O)c1ccc(Cl)cc1)Cc1cccs1	inconclusive: -19.2%
Cc1nc2sc3c(c2c(=O)[nH]1)CCCC3	inconclusive: 136%
c1ccc(-c2nc(-c3ccc(-c4ccon4)s3)no2)cc1	inconclusive: 106%
O=C(c1ccc(OC2CCN(C(=O)C3CC3)CC2)cc1)N(CCO)Cc1ccccc1	inconclusive: 104%
CC1(C)C([N+](=O)[O-])C(c2ccc(F)cc2)NC(c2ccc(F)cc2)C1[N+](=O)[O-] (stereo not given)	inconclusive: 148%
Cc1ccc(C2(C(F)(F)F)NC(=O)N3N=C4CCCCCN4C3=C2C#N)cc1 (stereo not given)	inconclusive: 101%
COc1ccc(C(CNC(=O)COc2ccc(-c3ccccc3)cc2)N2CCOCC2)cc1 (stereo not given)	inconclusive: 78.2%
Cc1cccnc1NC(=O)NC(=O)c1ccc(C(C)(C)C)s1	inconclusive: 18.9%
COc1ccc(/C=N/NC(=O)c2cnccn2)c(OC)c1OC	inconclusive: 136%
Cc1ccccc1NC(=O)CSc1nc(O)cc(=O)n1C	inconclusive: 115%
O=C(O)c1[nH]c2ccc(Br)cc2c1CCN1C(=O)c2cccc([N+](=O)[O-])c2C1=O	inconclusive: -223%
COc1cccc(C(=O)Nc2nnc(-c3ccc(Cl)cc3)o2)c1	inconclusive: 102%
CC1Cc2cc(/C=C3/SC(=S)NC3=O)ccc2O1 (stereo not given)	inconclusive: 95.9%
O=C(Nc1ccccc1)c1nccn1Cc1ccc(F)cc1	inconclusive: 112%
FC(F)(F)c1nnc2ccc(N3CCCCCC3)nn12	inactive: 122%
COCC(C)n1c(SCc2cc(C(=O)OC)c(C)o2)nc2ccccc2c1=O (stereo not given)	inconclusive: 134%
CCOC(=O)CNC(=O)C1COc2ccccc2O1 (stereo not given)	inconclusive: 67.3%
Cc1ccc(/C=N/Nc2cc(C)nc(N3CCOCC3)n2)cc1	inconclusive: 91.8%
O=C(NCCN1CCOCC1)c1ccc(=O)n(Cc2ccc(Cl)cc2)c1	inconclusive: 121%
Cc1cc(NC(=S)Nc2ccc(C)c(Cl)c2)n[nH]1	inconclusive: 101%

Reference: PubChem BioAssay AID1439 (NMMLSC, 2008)
